Source: PMC9332509
No constants are given. Whether binding was seen depends on the method and setting. Binding seen in cells or lysates may run through a third protein. Some binding calls cover weakened binding; strength is not graded here.

Amino acid sequences for entries named in this document (tags omitted).
UniProt O95817: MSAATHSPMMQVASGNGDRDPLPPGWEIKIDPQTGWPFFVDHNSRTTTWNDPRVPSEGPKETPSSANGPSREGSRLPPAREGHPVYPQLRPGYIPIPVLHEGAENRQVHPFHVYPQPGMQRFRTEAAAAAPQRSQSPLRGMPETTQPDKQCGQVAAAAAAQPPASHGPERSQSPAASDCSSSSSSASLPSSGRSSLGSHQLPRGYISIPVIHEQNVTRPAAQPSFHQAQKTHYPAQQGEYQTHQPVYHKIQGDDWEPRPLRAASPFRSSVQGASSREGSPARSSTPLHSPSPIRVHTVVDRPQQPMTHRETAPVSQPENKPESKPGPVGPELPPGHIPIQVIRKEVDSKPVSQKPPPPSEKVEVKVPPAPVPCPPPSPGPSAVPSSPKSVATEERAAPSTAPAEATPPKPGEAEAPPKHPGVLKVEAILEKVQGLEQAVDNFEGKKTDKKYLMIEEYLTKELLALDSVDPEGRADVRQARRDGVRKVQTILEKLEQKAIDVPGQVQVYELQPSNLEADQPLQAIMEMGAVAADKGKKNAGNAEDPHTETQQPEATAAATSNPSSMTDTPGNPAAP

Target: BAG3 (B cell lymphoma 2-associated athanogene) (human (endogenous in HUVECs)) (UniProt O95817)
Assay: co-IP; HUVEC extracts immunoprecipitated with immobilised anti-BAG3 antibody (10 ug, Co-IP kit), blots probed with anti-HSP70 or anti-HSPB8; endogenous proteins

- binding: binds
B1: HSPB8 (protein, UniProt Q9UJY1 1-196)
chain: MADGQMPFSCHYPSRLRRDPFRDSPLSSRLLDDGFGMDPFPDDLTASWPDWALPRLSSAWPGTLRSGMVPRGPTATARFGVPAEGRTPPPFPGEPWKVCVNVHSFKPEELMVKTKDGYVEVSGKHEEKQQEGGIVSKNFTKKIQLPAEVDPVTVFASLSPEGLLIIEAPQVPPYSTFGESSFNNELPQDSQEVTCT
